# In the supplement of paper PMC5949888:
# Most values lie at the floor of the assay. Slopes are relative: functional sequences can read slightly below zero.
# Test system: Saccharomyces cerevisiae PS128 hsf1 delta, HSF1(1-493) fusion
# Assay: growth estimate (transactivation domain function in HSF1 fusion, heat-shock survival) (a.u. (slope of normalised read count over time)); higher = stronger growth at 37°C, i.e. more transactivation activity
# Conditions: library: random library
# Method: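 Random 60-nt DNA library encoding peptides of up to 20 aa, fused to the C-terminus of yeast HSF1 residues 1-493 (C-terminal TAD deleted) and expressed from the native HSF1 promoter on a CEN plasmid in hsf1-deleted S. cerevisiae PS128. Cells were selected at 37°C on -trp 5-FOA plates for 0, 2, 4, 6 and 8 days and amplicons were sequenced. Growth estimate is the slope of a robust linear fit of total-sum-normalised read counts (normalised to the first time point) over time, using at least 2 replicates. Sequences are classed functional (TAD activity) above a threshold of -0.13, set from stop-codon control sequences.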
row,Substance,growth estimate
1,ESPLSVACVRHASVRLRPRA,< -0.25
2,ESQTSLERSFILI,< -0.25
3,ESRRVD,< -0.25
4,ESRSSNRSCCMVRADWDDIG,< -0.25
5,ESSEETA,-0.195
6,ESSEVPVTADIPTARVAHRE,< -0.25
7,ESSSSKRIVVRQKRAAASFI,< -0.25
8,EST,< -0.25
9,ESTEASECWVCGTFG,< -0.25
10,ESTR,< -0.25
11,ESVAKHCQLHSPTADTG,< -0.25
12,ESVHPFIVACANHKNQILAP,< -0.25
13,ESVND,< -0.25
14,ESVWGYHGLTDWE,< -0.25
15,ESVWHCGAA,< -0.25
16,ESYFSTNGNIFMFTA,< -0.25
17,ESYLDMLQQSRNGFH,< -0.25
18,ESYPVGGRPQMFEFVERV,< -0.25
19,ETCG,< -0.25
20,ETFLQIRL,< -0.25
21,ETFRGYVKGLTSIGARRDIC,< -0.25
22,ETKL,< -0.25
23,ETLDKAVETYMSYL,7.46
24,ETNS,< -0.25

row,Substance,growth estimate
1,ETPIFLISAASATSHDSHPG,< -0.25
2,ETQISIDISSCPVSMDGILG,< -0.25
3,ETRGVATAGGPCVHPLTCGM,< -0.25
4,ETRTTMGCSYLLGIISDTAL,< -0.25
5,ETSARPGASPEFYRITWDSA,< -0.25
6,ETSEWRIHTHFLIGRGNKHC,< -0.25
7,ETSGHEELGL,< -0.25
8,ETVIARGNGNTTVSRHTCGN,-0.248
9,ETWDLLRSNFGPCADEGCKS,< -0.25
10,EVARGRDKNW,< -0.25
11,EVCTYPKMHS,< -0.25
12,EVDIETNGHRVAGWSPRDGV,< -0.25
13,EVFSQGGFRGRQIAKRLSRQ,< -0.25
14,EVGEVYGYREALWLPDRTGR,< -0.25
15,EVGHRMGVQHFTVRPTR,-0.246
16,EVGMGQLIRPVNL,< -0.25
17,EVHCLPTIHGIFFIRRYFSA,< -0.25
18,EVI,< -0.25
19,EVKEGSVSRECRTGRVPNKK,< -0.25
20,EVLKRRPTSTTYR,< -0.25
21,EVLSGTKAKQSSLGVSSVAT,< -0.25
22,EVMVSVVGSAISHVAVINDA,< -0.25
23,EVPFLPARSIGSNDLRTQVG,< -0.25
24,EVPIGYEILSIGTPRSARQG,< -0.25

row,Substance,growth estimate
1,EVQGK,< -0.25
2,EVQGRAN,< -0.25
3,EVRRCSQARMHQATGREPAI,< -0.25
4,EVRVPDCIAQRVIRIFRAIM,< -0.25
5,EVSRADWL,< -0.25
6,EVTEVVWVYTVVISGCNTH,< -0.25
7,EVTGKINTGVQTPTGSRGGN,< -0.25
8,EVTTTL,< -0.25
9,EVTVTSPGIVLCLFGDLLTA,< -0.25
10,EVVMSVPL,< -0.25
11,EVYTLNKSPGVQANQVSCPH,< -0.25
12,EWALQFRI,< -0.25
13,EWAPWRSILGPTSRRKTRGA,< -0.25
14,EWASSRQLGFCRCASCRGVC,-0.199
15,EWAVPLSPLGL,< -0.25
16,EWDNRQLGFETSVRARSGSE,< -0.25
17,EWFIV,< -0.25
18,EWISRFRYRNLMAWLVVSAV,< -0.25
19,EWMV,< -0.25
20,EYA,< -0.25
21,EYCSPWKAKGSLM,< -0.25
22,EYFNNRNSFRDLLVLSKWLS,< -0.25
23,EYRDFWKMLCLRRPHTTSVL,< -0.25
24,EYRPRFGAATMCWQFWTNEM,< -0.25

row,Substance,growth estimate
1,EYWTLDRPKGGATHLSVTES,< -0.25
2,FAASAKTAPYCNGFAHCVSV,< -0.25
3,FAASSGQDEGVITRHGL,< -0.25
4,FAFGVLFPHP,< -0.25
5,FAGCCCHPSFRVLRKVINHQ,< -0.25
6,FAGCLIGGIDPRRDRRHARS,< -0.25
7,FAHVPILCPTVTGANIRVL,< -0.25
8,FAKLQGWHRVCLRVVARGFA,< -0.25
9,FAKRQTFRIQVARAGGLGAC,< -0.25
10,FANRPGTLTRVDGQVTTR,-0.228
11,FAPLRTYTSYIDGTDAWFNG,-0.159
12,FAPRTGWGTALKVVSTSVSA,< -0.25
13,FAPVGARLDVYQPAIGCVLA,< -0.25
14,FAS,< -0.25
15,FASCRHVG,< -0.25
16,FASNTQVSGREREVSRACRL,< -0.25
17,FASQDFAPPLQTILFNLQRR,< -0.25
18,FAVKISMQIDYKGMPSPESC,< -0.25
19,FCCLEVISPPEARWPLTLCQ,< -0.25
20,FCGPS,< -0.25
21,FCGTYERSVQQTGGPKTGCR,< -0.25
22,FCIGFTMTEVVRFLLSLS,< -0.25
23,FCIGSATGQVMPDQM,< -0.25
24,FCPENTS,< -0.25

row,Substance,growth estimate
1,FCPPGAARGRRALAEF,< -0.25
2,FCRAAFGFGPHTCANRVSAL,< -0.25
3,FCRRVVSHGTRERQT,< -0.25
4,FCSSWPSFRWTDFGNLLISL,< -0.25
5,FDEGVHTGSTGRLVVLHVYG,< -0.25
6,FDGGHTTPNG,< -0.25
7,FDLACSGPKDSRT,-0.245
8,FDLRISRSLRGPSGLFAPTA,< -0.25
9,FDQ,< -0.25
10,FDRGSGGCIRYLLCRVGTA,< -0.25
11,FDVGGSVEQRSIV,< -0.25
12,FECSEYKWLSPSVCPDVSGG,< -0.25
13,FEDAVEASTWKVCTTCTQ,< -0.25
14,FEDPARGNRDSAVHYLFRWE,-0.247
15,FEESMSCVTFKTGLFSGSRA,< -0.25
16,FEGPVSYDSSASQPVGEKIR,< -0.25
17,FEGSCVSLSARTEVGHNLMR,< -0.25
18,FELRC,< -0.25
19,FENCPIDSIRNPRLCLCQCG,< -0.25
20,FEPLGYYKALIERVN,< -0.25
21,FERGLHGGRRRSRCGYRRRG,< -0.25
22,FESDPRVDPTLLRCSRRAFS,< -0.25
23,FEVGEVGAAPHGI,< -0.25
24,FEYHGLQ,< -0.25

# Three entries from above, set out differently.
row | Substance | growth estimate
7 | ESSSSKRIVVRQKRAAASFI | < -0.25
8 | EST | < -0.25
9 | ESTEASECWVCGTFG | < -0.25

# Next part.

row,Substance,growth estimate
1,FFAIVSARWSLRRFPNPL,< -0.25
2,FFCISHDLERT,< -0.25
3,FFGTHAVINF,< -0.25
4,FFIYVTKAQRV,< -0.25
5,FFLGEPSGTLNGNNSYVGAE,< -0.25
6,FFRELKGRRRSWEGRTCLRR,< -0.25
7,FFYAHRARSAN,< -0.25
8,FFYLSHGIG,< -0.25
9,FGCHSNVYIVVDAVASDVGR,< -0.25
10,FGDYASG,< -0.25
11,FGFDRIRFPFQSTHQPA,< -0.25
12,FGFELQKTCRQILVHMTETS,< -0.25
13,FGGFEVDIL,< -0.25
14,FGGKAAWEVSDVTSTLECLL,< -0.25
15,FGGL,< -0.25
16,FGGRPGEWDPRHPGVSESPG,< -0.25
17,FGHPIRREP,< -0.25
18,FGKAFMRRSYGRG,< -0.25
19,FGLEPGLEFSIFSGVMFLLV,< -0.25
20,FGLEWGGFGEVLQ,< -0.25
21,FGLHASRTGINWIVGARPRG,-0.246
22,FGPSSPEMQRTWI,< -0.25
23,FGQWRGSGGLRALSPATST,< -0.25
24,FGQYGRNLLVLRR,< -0.25

# In a second layout: results already given
row | Substance | growth estimate
9 | ESTEASECWVCGTFG | < -0.25
14 | EWASSRQLGFCRCASCRGVC | -0.199
23 | EYRDFWKMLCLRRPHTTSVL | < -0.25

# The results go on.

row,Substance,growth estimate
1,FGRALTCLAHNLAGTRCITR,< -0.25
2,FGRCLRDRAVPPHRIVQTIG,< -0.25
3,FGRTFTLTYQRL,< -0.25
4,FGRWDGTIPVISNLGIHGPP,< -0.25
5,FGSPTWAFYDVAGDESVHTM,0.137
6,FGTCCLEPATSCSPAR,< -0.25
7,FGVALSSTRRVITGAGTGGT,< -0.25
8,FGVTRDMW,< -0.25
9,FGVVSRQEGPTRIECIG,-0.241
10,FGWIPASY,< -0.25
11,FGWTV,< -0.25
12,FHCTHRLRSASGEVTPHDER,< -0.25
13,FHGSSMATTSRPGMVSSVLP,< -0.25
14,FHHD,< -0.25
15,FHHPISHQLERNVHFSVEST,< -0.25
16,FHKGLIRNRWNGRFSRSVTT,< -0.25
17,FHLPLSFSRSGPTRKPAGGE,< -0.25
18,FHLW,< -0.25
19,FHMAARACLLQTVAVSEH,< -0.25
20,FHPLHMGLKFAGALAPQNAA,< -0.25
21,FHRCHNELFLSHA,< -0.25
22,FHRVVSGGLFEHRS,< -0.25
23,FHVICLLI,< -0.25
24,FHVNEFAVDLVRDY,< -0.25

row,Substance,growth estimate
1,FICLS,< -0.25
2,FIFWRLPGHRKGRPGGALNL,< -0.25
3,FIG,< -0.25
4,FIGLRAERPMLRAPSGKRLP,-0.245
5,FIIMVRG,-0.246
6,FILILNSGGLWQCSVAVIFW,< -0.25
7,FILQQLLLAVLCSSSPVCVV,< -0.25
8,FIR,< -0.25
9,FITASSPLPAVGKRLYDLTP,< -0.25
10,FITR,< -0.25
11,FIYPTVFKGPSLTER,< -0.25
12,FKMTFVTYSACASRNFKERV,< -0.25
13,FKNLNSRCSVTASTEKDLSR,< -0.25
14,FKQHQIVQEHKIREIRNSRV,< -0.25
15,FLARTRRGLPRWPGSEEVKL,< -0.25
16,FLCRVD,< -0.25
17,FLDWLPEARRVLWEVWDQMI,< -0.25
18,FLGLNAAGCDGWGTLAKAEG,< -0.25
19,FLHGNSQSCAMLGKA,< -0.25
20,FLKPRASDIRHCNARPAILR,< -0.25
